These are yes or no findings as the source states them, for the method shown. Binding seen in cells or lysates may run through a third protein. Some binding calls cover weakened binding; strength is not graded here. For part of these data: Sequences can lack the tags named with a protein.

The chains behind the UniProt entries cited, without tags or fusion partners.
UniProt Q01082: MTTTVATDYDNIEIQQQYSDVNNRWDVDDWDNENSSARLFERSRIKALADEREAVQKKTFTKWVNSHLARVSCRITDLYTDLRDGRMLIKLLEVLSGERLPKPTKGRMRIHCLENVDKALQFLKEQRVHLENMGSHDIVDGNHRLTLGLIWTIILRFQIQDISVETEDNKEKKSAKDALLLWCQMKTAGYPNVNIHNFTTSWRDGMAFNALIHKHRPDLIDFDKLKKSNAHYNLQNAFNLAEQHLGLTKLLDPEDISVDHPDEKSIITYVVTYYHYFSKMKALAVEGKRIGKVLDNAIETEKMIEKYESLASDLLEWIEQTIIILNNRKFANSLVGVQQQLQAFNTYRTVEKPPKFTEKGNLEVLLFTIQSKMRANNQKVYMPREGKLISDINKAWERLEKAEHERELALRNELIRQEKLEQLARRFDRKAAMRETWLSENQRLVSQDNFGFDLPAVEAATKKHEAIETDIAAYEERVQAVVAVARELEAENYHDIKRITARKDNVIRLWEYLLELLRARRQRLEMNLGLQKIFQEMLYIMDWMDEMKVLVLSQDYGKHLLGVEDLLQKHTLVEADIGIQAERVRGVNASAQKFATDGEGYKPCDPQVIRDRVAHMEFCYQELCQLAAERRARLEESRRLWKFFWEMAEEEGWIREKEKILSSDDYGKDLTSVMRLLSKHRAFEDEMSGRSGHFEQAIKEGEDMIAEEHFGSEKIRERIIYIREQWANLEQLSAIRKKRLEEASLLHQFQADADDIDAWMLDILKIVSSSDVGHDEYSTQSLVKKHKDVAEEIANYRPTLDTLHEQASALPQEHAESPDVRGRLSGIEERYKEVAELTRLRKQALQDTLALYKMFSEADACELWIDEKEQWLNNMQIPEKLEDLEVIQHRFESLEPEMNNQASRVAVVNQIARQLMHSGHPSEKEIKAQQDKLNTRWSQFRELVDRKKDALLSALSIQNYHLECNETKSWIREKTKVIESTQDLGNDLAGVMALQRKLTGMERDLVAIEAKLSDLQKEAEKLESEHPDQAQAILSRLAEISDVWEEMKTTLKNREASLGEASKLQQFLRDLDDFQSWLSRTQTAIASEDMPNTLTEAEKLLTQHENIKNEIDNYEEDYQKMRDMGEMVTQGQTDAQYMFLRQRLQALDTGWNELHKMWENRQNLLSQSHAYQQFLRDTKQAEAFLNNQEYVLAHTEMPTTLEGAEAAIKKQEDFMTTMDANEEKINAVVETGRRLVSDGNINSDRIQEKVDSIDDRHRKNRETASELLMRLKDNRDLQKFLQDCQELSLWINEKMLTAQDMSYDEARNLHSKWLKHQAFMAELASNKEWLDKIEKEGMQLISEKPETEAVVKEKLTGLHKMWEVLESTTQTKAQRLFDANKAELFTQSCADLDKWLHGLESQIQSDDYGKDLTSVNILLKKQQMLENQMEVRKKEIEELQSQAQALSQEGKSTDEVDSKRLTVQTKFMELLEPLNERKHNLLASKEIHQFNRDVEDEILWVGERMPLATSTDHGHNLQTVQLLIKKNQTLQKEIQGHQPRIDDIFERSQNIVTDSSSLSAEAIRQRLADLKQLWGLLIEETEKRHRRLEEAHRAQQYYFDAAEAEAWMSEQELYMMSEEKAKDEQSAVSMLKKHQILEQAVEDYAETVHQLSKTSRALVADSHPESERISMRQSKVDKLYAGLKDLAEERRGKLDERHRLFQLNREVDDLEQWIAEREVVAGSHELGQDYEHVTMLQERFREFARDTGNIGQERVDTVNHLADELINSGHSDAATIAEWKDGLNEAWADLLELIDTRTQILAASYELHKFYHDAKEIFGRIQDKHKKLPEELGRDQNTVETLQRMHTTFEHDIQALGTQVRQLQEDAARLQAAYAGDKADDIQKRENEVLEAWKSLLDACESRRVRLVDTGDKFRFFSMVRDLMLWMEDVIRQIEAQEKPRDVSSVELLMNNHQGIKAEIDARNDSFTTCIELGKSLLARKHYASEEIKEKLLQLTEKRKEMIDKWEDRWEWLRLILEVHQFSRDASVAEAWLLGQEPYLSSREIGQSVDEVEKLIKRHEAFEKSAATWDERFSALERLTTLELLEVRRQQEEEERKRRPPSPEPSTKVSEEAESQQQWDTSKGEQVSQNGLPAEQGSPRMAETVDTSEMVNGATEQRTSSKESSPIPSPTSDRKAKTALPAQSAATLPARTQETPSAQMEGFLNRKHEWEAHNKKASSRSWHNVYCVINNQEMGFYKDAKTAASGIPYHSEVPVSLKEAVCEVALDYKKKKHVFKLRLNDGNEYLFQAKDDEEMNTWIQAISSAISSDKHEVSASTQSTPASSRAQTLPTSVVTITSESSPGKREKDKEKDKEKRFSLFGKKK

In assay [1] the target is T1, FLAG-PTTG1 (UniProt O95997).
T1 sequence: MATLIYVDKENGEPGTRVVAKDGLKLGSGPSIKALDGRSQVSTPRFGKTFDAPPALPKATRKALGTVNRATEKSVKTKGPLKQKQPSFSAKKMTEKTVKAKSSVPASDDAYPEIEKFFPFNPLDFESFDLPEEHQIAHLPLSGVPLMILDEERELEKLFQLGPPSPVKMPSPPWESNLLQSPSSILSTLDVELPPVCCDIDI
Nature of the assay: co-IP; TCAM2 cells overexpressing FLAG-PTTG1 or FLAG-PTTG1Δ159; IP with M2 αFLAG antibody overnight at 4 °C, Dynabeads; IP lysis buffer 50 mM Tris-Cl pH 7.5, 150 mM NaCl, 1% Nonidet P-40, 1 mM EDTA; Western blot for endogenous SPTBN1, densitometry. For orientation: In western blotting, separated proteins are transferred to a membrane and probed.

Assay [2] concerns the target T2, Pituitary tumor-transforming gene 1 (PTTG1) (human (endogenous in JKT-1, SEM-1 and TCAM2)) (UniProt O95997).
T2 sequence: T1 sequence
Nature of the assay: co-IP; endogenous PTTG1 immunoprecipitated from TCAM2 lysate (IP α-PTTG1), Western blot for SPTBN1.

Assay [3] has as its target T2, Pituitary tumor-transforming gene 1 (PTTG1) (human (endogenous in JKT-1, SEM-1 and TCAM2)). The assay is described as follows: co-IP; endogenous PTTG1 immunoprecipitated from JKT-1 and SEM-1 lysates (IP α-PTTG1), Western blot for SPTBN1.

Regarding “Spectrin-βII-chain (SPTBN1) (from UniProt Q01082 1-2364)”, the binding entry in assay [1] is given as “binds”; in assay [2] it was “binds”; in assay [3] it was “binds weakly”.

Source of the values: article PMC10707054.
